Values of other authors in patent publication US6436636B1, “Methods for identifying pharmacologicals for the treatment of heart failure” (Wake Forest University, priority 1995, dated 2002).
For at least one compound, name, drawing or mass did not settle the structure.

System: β-ARB (β-AR mRNA-binding polypeptide)
Settings: cited from earlier work

## C[C@@H]1C[C@H]2[C@@H]3CCC4=CC(=O)C=C[C@]4(C)[C@@]3(F)[C@@H](O)C[C@]2(C)[C@@]1(O)C(=O)CO [dexamethasone]
DDT1-MF2 cells
  effect on β2-AR mRNA: up-regulates
Treatment of DDT1-MF2 cells
  down-regulation of β-ARB: ~50%
